Values from PubChem BioAssay AID1259308 (NCATS, 2017)
The deposit covers about 59,000 reagents; shown is an unselected part. About 1,510 of all reagents (2.6%) were called active. 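Calls use total luciferase alone and ignore viability, so some active siRNAs may act by altering cell number.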 Further read-outs or replicates are left out here.

Assay: 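Candidate targets for better recombinant protein yield in mammalian cells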 (primary screen)
Cell system: human HEK293 embryonic kidney cells stably expressing firefly luciferase (HEK-CMV-Luc2-Hygro)
Knock-down reagent: single siRNA against human genes, 0.8 pmol siRNA per well
Time to read-out: 72 h
Read-out: 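Luciferase light (ONE-Glo) measured on one replicate plate set and viability (CellTiter-Glo) on the other, scaled to a negative control siRNA, with robust z-scores and luciferase per cell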
Reading the numbers: total luciferase, z-score and total luciferase, % of control: higher = more reporter protein produced
Call rule: 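Active when the median/MAD z-score for overall luciferase is greater than 3; a gene was taken forward for validation with new siRNAs if at least two of its three siRNAs passed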
Meaning of the calls: active = raised luciferase; inactive = no rise

gene | PubChem SID | total luciferase, z-score | total luciferase, % of control | call
SLC2A11 | SID160748408 | 0.379 | 89.4 | inactive
SLC2A11 | SID160748409 | -0.468 | 72.6 | inactive
SLC2A11 | SID160748410 | 0.831 | 98.4 | inactive
LYST | SID160743056 | 0.189 | 85.7 | inactive
LYST | SID160743066 | -0.418 | 73.6 | inactive
LYST | SID160743077 | 0.478 | 91.4 | inactive
SRPK2 | SID160717356 | 0.421 | 90.3 | inactive
SRPK2 | SID160717357 | 0.221 | 86.3 | inactive
SRPK2 | SID160717358 | 0.524 | 92.3 | inactive
FLYWCH1 | SID160751974 | 0.025 | 82.4 | inactive
FLYWCH1 | SID160751976 | 5.6 | 193 | active
FLYWCH1 | SID160751977 | 0.556 | 92.9 | inactive
RPGRIP1 | SID160745582 | -0.338 | 75.2 | inactive
RPGRIP1 | SID160745583 | -0.747 | 67 | inactive
RPGRIP1 | SID160745584 | -0.743 | 67.1 | inactive
WFDC21P | SID160769627 | 2.51 | 132 | inactive
WFDC21P | SID160769628 | 0.031 | 82.5 | inactive
WFDC21P | SID160769629 | -0.293 | 76.1 | inactive
B2M | SID160722670 | -1.41 | 53.8 | inactive
B2M | SID160722681 | 0.762 | 97 | inactive
B2M | SID160722691 | -0.126 | 79.4 | inactive
LINC03033 | SID160766939 | 0.0282 | 82.4 | inactive
LINC03033 | SID160766940 | -1.53 | 51.4 | inactive
LINC03033 | SID160766941 | 3 | 141 | inactive
PSMB3 | SID160715188 | -0.227 | 77.4 | inactive
PSMB3 | SID160715189 | -0.222 | 77.5 | inactive
PSMB3 | SID160715191 | 0.515 | 92.1 | inactive
CYP4A22 | SID160763372 | -2.06 | 40.9 | inactive
CYP4A22 | SID160763373 | -0.736 | 67.3 | inactive
CYP4A22 | SID160763374 | 0.8 | 97.8 | inactive
TSPAN17 | SID160730926 | -2.21 | 37.9 | inactive
TSPAN17 | SID160737859 | 1.38 | 109 | inactive
TSPAN17 | SID160737861 | -0.535 | 71.2 | inactive
CMTM5 | SID160724742 | -0.447 | 73 | inactive
CMTM5 | SID160755359 | -1.06 | 60.9 | inactive
CMTM5 | SID160755360 | -0.0402 | 81.1 | inactive
KCNJ5 | SID160776175 | 0.445 | 90.7 | inactive
KCNJ5 | SID160776176 | -0.642 | 69.1 | inactive
KCNJ5 | SID160776177 | 1.55 | 113 | inactive

Records above whose gene name begins with W or w:
gene | PubChem SID | total luciferase, z-score | total luciferase, % of control | call
WFDC21P | SID160769627 | 2.51 | 132 | inactive
WFDC21P | SID160769628 | 0.031 | 82.5 | inactive
WFDC21P | SID160769629 | -0.293 | 76.1 | inactive
